Measured values as given in US20050169909A1.

Biological target: human IgE Fc peptide that carried mutations in epitope 'A' (human)
Assay: Western blot of in vitro translated V5-tagged IgE Fc peptides (Example 12 B) [panel anti-IgE 5I]

B1: Anti-IgE CL-5I (antibody, V domains shown)
VH: QVQLVQSGAEVMKPGSSVKVSCKASGYTFSMYWLEWVRQAPGHGLEWMGEIDPGTFETNYNEKFKARVTFTADTSTSTAYMELSSLRSEDTAVYYCARFSHFSGSNYDYFDYWGQGTLVTVSS
VL: EIVMTQSPATLSVSPGERATLSCRASQSIGTNIHWYQQKPGQAPRLLIYYASESISGIPARFSGSGSGTEFTLTISSLQSEDFAVYYCQQSWSWPTTFGGGTKVEIKT
binding: binds

Results are given in words; binding and its absence hold for the method and conditions named. Binding can be weak; no strength is given.
